At least one peptide structure holds a part that was inferred or is arguable (an end, a ring closure or a residue). Some entries share one result that the patent states for a list of compounds. Starred links: 1 amine or outer side, 2 acyl side, 3 side chain; linkers in the order of their positions; H or OH if unused. Non-standard residues stand in square brackets, D forms with d. Residues, ends and D or L forms follow the SMILES beside them. *: point of attachment. DOTA = O=C(O)CN1CCN(CC(=O)O)CCN(CC(=O)*)CCN(CC(=O)O)CC1; d(γGlu) = O=C(O)[C@@H](CCC(=O)[*:2])N[*:1]; 1Nal = N[C@@H](Cc1cccc2ccccc12)C(=O)O; NMeNle = CCCC[C@H](NC)C(=O)O; GABA = NCCCC(=O)O; βAla = NCCC(=O)O
Legend:
Assay type in all cases: cell-based
[1] = target: T1, human CCK2R (A431-CCK2R cells) (Homo sapiens, UniProt P32239); experiment: Cell internalization in A431-CCK2R cells; details: for cellular internalization: ^68Ga-labelled, 2 h incubation, A431-CCK2R cells
T1 construct: expressed in transfected cells; host or cells: A431 cells (A431-CCK2R), provided by Dr. Luigi Aloj
T1 sequence (P32239 1-447): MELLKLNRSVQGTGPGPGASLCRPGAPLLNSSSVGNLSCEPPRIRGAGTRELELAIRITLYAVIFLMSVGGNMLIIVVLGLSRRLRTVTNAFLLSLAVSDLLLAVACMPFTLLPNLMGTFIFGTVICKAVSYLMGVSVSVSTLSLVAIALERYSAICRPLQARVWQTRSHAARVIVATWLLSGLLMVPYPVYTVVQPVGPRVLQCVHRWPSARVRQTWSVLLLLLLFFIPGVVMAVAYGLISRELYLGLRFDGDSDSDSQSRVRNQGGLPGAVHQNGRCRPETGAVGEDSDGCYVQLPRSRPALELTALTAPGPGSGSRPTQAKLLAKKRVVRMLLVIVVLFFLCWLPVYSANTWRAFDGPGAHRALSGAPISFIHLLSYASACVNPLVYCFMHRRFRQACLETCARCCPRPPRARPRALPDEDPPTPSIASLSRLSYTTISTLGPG

[2] = system: A431-mock cells; experiment: Non-specific cell uptake in A431-mock cells; details: for uptake in A431-mock cells: ^68Ga-labelled, 2 h incubation
[3] = target: T2, rat CCK2R (AR42J cells) (Rattus norvegicus, UniProt P30553); experiment: Cell internalization in AR42J cells; details: ^177Lu-labelled
T2 construct: cell internalization assays were performed using 1.5 million of rat pancreatic AR42J cells expressing rat CCK2R; endogenous in cells; host or cells: AR42J rat pancreatic cells
T2 sequence (P30553 1-452): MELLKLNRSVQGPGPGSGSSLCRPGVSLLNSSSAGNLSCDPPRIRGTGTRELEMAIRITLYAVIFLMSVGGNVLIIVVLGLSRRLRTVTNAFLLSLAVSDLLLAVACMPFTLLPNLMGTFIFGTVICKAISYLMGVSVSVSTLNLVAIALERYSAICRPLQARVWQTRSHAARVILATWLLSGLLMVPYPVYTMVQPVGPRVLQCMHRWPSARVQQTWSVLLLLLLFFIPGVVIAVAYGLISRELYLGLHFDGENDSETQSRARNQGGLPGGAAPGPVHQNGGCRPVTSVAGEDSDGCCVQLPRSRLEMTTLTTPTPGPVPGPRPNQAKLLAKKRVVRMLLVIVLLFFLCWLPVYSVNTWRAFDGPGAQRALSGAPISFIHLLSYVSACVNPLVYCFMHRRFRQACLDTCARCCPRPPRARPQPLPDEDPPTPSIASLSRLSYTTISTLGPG

Which results are given for `CCCC[C@@H](C(=O)N[C@@H](CC(=O)O)C(=O)N[C@@H](Cc1cccc2ccccc12)C(N)=O)N(C)C(=O)[C@H](Cc1c[nH]c2ccccc12)NC(=O)CCNC(=O)CC[C@@H](NC(=O)CC[C@@H](NC(=O)CN1CCN(CC(=O)O)CCN(CC(=O)O)CCN(CC(=O)O)CC1)C(=O)O)C(=O)O` [^68Ga-DOTA-MGSC, ^68Ga-DOTA-γDGlu-γDGlu-βAla-Trp-(NMe)Nle-Asp-1Nal-NH2, metal not drawn] ({DOTA-d(γGlu)-d(γGlu)-βAla}-W[NMeNle]D[1Nal]-NH2)?
cellular internalization [1]: 47.6±3.4%; uptake in A431-mock cells [2]: < 2%

How did the cellular internalization [1] turn out when `CCCC[C@@H](C(=O)N[C@@H](CC(=O)O)C(=O)N[C@@H](Cc1cccc2ccccc12)C(N)=O)N(C)C(=O)[C@H](Cc1c[nH]c2ccccc12)NC(=O)CCNC(=O)CCCNC(=O)CCCNC(=O)CN1CCN(CC(=O)O)CCN(CC(=O)O)CCN(CC(=O)O)CC1` [^68Ga-DOTA-MGSB, metal not drawn] ({DOTA-GABA-GABA-βAla}-W[NMeNle]D[1Nal]-NH2) was run?
The cellular internalization was 43.1±3.1%.

And the “uptake in A431-mock cells” value [2]?
Its value is < 2%.

What does the source list for `CCCC[C@@H](C(=O)N[C@@H](CC(=O)O)C(=O)N[C@@H](Cc1cccc2ccccc12)C(N)=O)N(C)C(=O)[C@H](Cc1c[nH]c2ccccc12)NC(=O)CCNC(=O)CC(O)CNC(=O)CC(O)CNC(=O)CN1CCN(CC(=O)O)CCN(CC(=O)O)CCN(CC(=O)O)CC1` (single isomer, unassigned) [^177Lu-DOTA-MGSA, ^177Lu-DOTA-GABOB-GABOB-βAla-Trp-(NMe)Nle-Asp-1Nal-NH2, metal not drawn]?
uptake in A431-CCK2R cells ([1]; ^177Lu-labelled, after 4 h): 57.3±2.5 % of total; uptake in mock cells ([2]; ^177Lu-labelled, after 4 h): < 1%; uptake in AR42J cells [3]: 45.2±0.8%; uptake in AR42J cells with receptor blocking ([3]; blocking with 1 μM pentagastrin): < 1%

Which results are given for `CCCC[C@@H](C(=O)N[C@@H](CC(=O)O)C(=O)N[C@@H](Cc1cccc2ccccc12)C(N)=O)N(C)C(=O)[C@H](Cc1c[nH]c2ccccc12)NC(=O)CCNC(=O)CC(O)CNC(=O)CC(O)CNC(=O)CN1CCN(CC(=O)O)CCN(CC(=O)O)CCN(CC(=O)O)CC1` (single isomer, unassigned) [^68Ga-DOTA-MGSA, ^68Ga-DOTA-GABOB-GABOB-βAla-Trp-(NMe)Nle-Asp-1Nal-NH2, metal not drawn]?
cellular internalization [1]: 36.9±5.8%; uptake in A431-mock cells [2]: < 2%

Reference: patent US20240091390A1, “IMPROVED CHOLECYSTOKININ-2 RECEPTOR (CCK2R) TARGETING FOR DIAGNOSIS AND THERAPY” (Medizinische Universität Innsbruck, priority 2021, published 2024)
